Experimental data: PubChem BioAssay AID652272 (Drosophila RNAi Screening Center, 2013)
Assay: 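Genome-wide knock-down search for components of Hedgehog signalling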 (primary screen). System: Drosophila clone 8 (Cl8) cells. Reagents: long dsRNA against Drosophila genes. Detection: 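Firefly light from a Hedgehog-responsive ptc promoter reporter and Renilla reference light, both read on a plate reader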. Reading the numbers: firefly Hh reporter signal: higher = more ptc reporter light; Renilla reference signal: higher = more Renilla control light. Rule for the call: 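Called a hit if the two-replicate mean z-score lies below -2 or above +3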. Meaning of the calls: active = hit: reporter lowered or raised; inactive = not a hit.
In all, the deposit lists about 21,000 reagents; below is a random part of those that have a named target and a result. In the full data, 503 (2.4%) got an active call. 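Raw plate light values, not normalised; calls rest on replicate z-scores that were not deposited; hits include reporter decreases as well as increases.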 A plus sign joins genes that one reagent is predicted to hit. Reagent sequences are not shown. Not given: the amount of reagent, the time to read-out.

The opening 3 entries, to show the layout:
Gene	dsRNA	firefly Hh reporter signal, replicate 1	firefly Hh reporter signal, replicate 2	firefly Hh reporter signal, replicate 3	Renilla reference signal, replicate 1	Renilla reference signal, replicate 2	outcome
Ccp84Ad	DRSC12589	86396	5.13e5	1.04e5	3431	4755	inactive
CG34164	DRSC02837	93927	62113		2261	5040	inactive
CG31835 + CG42585	DRSC01412	1.25e5	1.79e5		3723	7840	inactive

The list itself, repeating the preview:
Gene	dsRNA	firefly Hh reporter signal, replicate 1	firefly Hh reporter signal, replicate 2	firefly Hh reporter signal, replicate 3	Renilla reference signal, replicate 1	Renilla reference signal, replicate 2	outcome
Ccp84Ad	DRSC12589	86396	5.13e5	1.04e5	3431	4755	inactive
CG34164	DRSC02837	93927	62113		2261	5040	inactive
CG31835 + CG42585	DRSC01412	1.25e5	1.79e5		3723	7840	inactive
CG4741	DRSC04228	76829	1.02e5		1600	8096	inactive
CG4741	DRSC04485	77824	44532		1446	3709	inactive
CG4597	DRSC10432	45763	42363		5360	3410	inactive
CG34039	DRSC09318	2.05e5			5175		inactive
TwdlW (TweedleW)	DRSC15540	66964	56947		1419	4343	inactive
Cpr49Ae (Cuticular protein 49Ae)	DRSC07201	73617	65635		3509	3120	inactive
Esp (Epidermal stripes and patches)	DRSC16664	5.35e5	97600		25153	3035	inactive
Grasp65	DRSC10917	68112	60088		2812	2184	inactive
CG3760	DRSC04415	6.26e5	1.07e5		4954	4954	inactive
kirre (kin of irre)	DRSC18785	1.14e5	1.61e5		4660	6309	inactive
CG30412	DRSC04564	89264	4.08e5	42448	3517	24378	inactive
Or94a (Odorant receptor 94a)	DRSC16772	4.67e5	77898		22800	2108	inactive
CG4646	DRSC06876	88125	47393		2509	4166	inactive
PGRP-SD (Peptidoglycan recognition protein SD)	DRSC10856	36443	57165		4349	4021	inactive
pr (purple)	DRSC03596	1.18e5	56234		4352	2355	inactive
CG8314	DRSC07144	72582	84477		4134	3545	inactive
agt (O-6-alkylguanine-DNA alkyltransferase)	DRSC12611	75424	78098		2376	2457	inactive
CG12075	DRSC17801	88565	75479		2051	2004	inactive
bcn92	DRSC18741	1.15e5	3.16e5		4440	11116	inactive
wun (wunen)	DRSC07719	89344	53430		3645	2224	inactive
CG11698	DRSC14355	6.51e5	1.20e5		4268	4268	inactive
RpL28 + snoRNA:Or-CD12	DRSC08293	31255	23025		1914	2881	active
mira (miranda)	DRSC16998	1.16e5	85832		5579	3574	inactive
GluRIID (Glutamate receptor IID)	DRSC16723	5.58e5	85368		30717	2336	inactive
CG14269	DRSC17912	66344	1.86e5		1824	7718	inactive
Pkc53E (Protein C kinase 53E)	DRSC05636	91041	1.99e5		2465	8256	inactive
Pkc53E (Protein C kinase 53E)	DRSC07510	1.09e5	77979		4369	3322	inactive
CG42699	DRSC18076	88672	68759		2027	1770	inactive
CG42699	DRSC18341	1.40e5	3.32e5		4740	12071	inactive
CG7173	DRSC11812	24640	46621		1813	2026	inactive
CG15201	DRSC19648	1.17e5	2.95e5		3052	11362	inactive
ImpL1 (Ecdysone-inducible gene L1)	DRSC11197	89590	36048		4132	1270	inactive
CG5781	DRSC02893	97243	45136		2601	3936	inactive
ldbr (lariat debranching enzyme)	DRSC10933	1.02e5	58866		4555	2442	inactive
CG3857	DRSC18542	1.94e5	1.28e5		2861	2850	inactive
pcx (pecanex)	DRSC18186	70070	1.64e5		1372	7331	inactive
pcx (pecanex)	DRSC18187	97410	2.31e5		2304	10979	inactive
pcx (pecanex)	DRSC18188	70265	2.60e5		2672	11216	inactive
pcx (pecanex)	DRSC18189	82422	1.94e5		1739	8680	inactive
pcx (pecanex)	DRSC18190	1.11e5	2.17e5		2464	9708	inactive
pcx (pecanex)	DRSC18816	2.33e5	1.35e5		5204	4980	inactive
CG32106	DRSC09219	2.50e5			5126		inactive
FIG4 (FIG4 phosphoinositide 5-phosphatase)	DRSC00515	66392	66125		2952	2384	inactive
Eig71Eb (Ecdysone-induced gene 71Eb)	DRSC11149	1.48e5			9111	4679	inactive
CG9328	DRSC03203	93019	74048		2887	3175	inactive
Mnt	DRSC17894	1.03e5	80562		2386	2458	inactive
Mnt	DRSC18480	59549	2.15e5		1842	9365	inactive
NetB (Netrin-B)	DRSC20262	1.37e5	63904		3105	1510	inactive
CG14715	DRSC14938	1.02e5	98022		3824	4152	inactive
CG2964	DRSC00554	1.85e5	1.53e5		4272	3849	inactive
alpha-Spec (alpha Spectrin)	DRSC08704	73723	88672		3553	3504	inactive
CG9377	DRSC03217	65109	46372		2745	2162	inactive
ninaA (neither inactivation nor afterpotential A)	DRSC00830	1.23e5	81849		5466	3888	inactive
Bicra	DRSC14417	64299	44528		3416	1472	inactive
